# Experimental data from paper doi:10.1101/2024.03.11.584206.
# T1: PLPPR3 pS351 phospho-peptide (LKRApSVDVDLLA)
# T1 sequence (peptide, phosphoserine at S351 (fifth residue of the peptide, printed pS)): LKRASVDVDLLA
# Biological target: T1, PLPPR3 pS351 phospho-peptide (LKRApSVDVDLLA)
# Assay: affinity purification with mass spectrometry
binder,measurement,value
"brain acid soluble protein 1 (BASP1), endogenous in adult mouse brain lysate (protein, UniProt Q91XV3 1-226) MGGKLSKKKKGYNVNDEKAKDKDKKAEGAGTEEEGTPKESEPQAAADATEVKESTEEKPKDAADGEAKAEEKEADKAAAAKEEAPKAEPEKSEGAAEEQPEPAPAPEQEAAAPGPAAGGEAPKAGEASAESTGAADGAAPEEGEAKKTEAPAAAGPEAKSDAAPAASDSKPSSAEPAPSSKETPAASEAPSSAAKAPAPAAPAAAEPQAEAPAAAASSEQSVAVKE",binding,binds

# No constants are given. Whether binding was seen depends on the method and setting. Binding seen in cells or lysates may run through a third protein. A yes stands for co-enrichment or nearness to the bait. Other partners may have been found.
